The values that follow come from paper PMC7028943.

Amino acid sequences for entries named in this document (tags omitted).
UniProt Q12824: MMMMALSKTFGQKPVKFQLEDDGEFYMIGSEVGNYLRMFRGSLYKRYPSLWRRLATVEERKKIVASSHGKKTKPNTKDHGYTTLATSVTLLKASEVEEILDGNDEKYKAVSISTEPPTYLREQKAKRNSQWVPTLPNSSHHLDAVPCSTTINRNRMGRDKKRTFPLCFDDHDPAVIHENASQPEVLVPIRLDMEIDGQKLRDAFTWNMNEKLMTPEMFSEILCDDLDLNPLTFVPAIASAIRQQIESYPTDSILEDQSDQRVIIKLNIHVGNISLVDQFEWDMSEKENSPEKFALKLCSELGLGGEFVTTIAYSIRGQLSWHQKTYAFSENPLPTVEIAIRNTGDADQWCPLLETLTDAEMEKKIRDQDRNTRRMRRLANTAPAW
UniProt Q92922: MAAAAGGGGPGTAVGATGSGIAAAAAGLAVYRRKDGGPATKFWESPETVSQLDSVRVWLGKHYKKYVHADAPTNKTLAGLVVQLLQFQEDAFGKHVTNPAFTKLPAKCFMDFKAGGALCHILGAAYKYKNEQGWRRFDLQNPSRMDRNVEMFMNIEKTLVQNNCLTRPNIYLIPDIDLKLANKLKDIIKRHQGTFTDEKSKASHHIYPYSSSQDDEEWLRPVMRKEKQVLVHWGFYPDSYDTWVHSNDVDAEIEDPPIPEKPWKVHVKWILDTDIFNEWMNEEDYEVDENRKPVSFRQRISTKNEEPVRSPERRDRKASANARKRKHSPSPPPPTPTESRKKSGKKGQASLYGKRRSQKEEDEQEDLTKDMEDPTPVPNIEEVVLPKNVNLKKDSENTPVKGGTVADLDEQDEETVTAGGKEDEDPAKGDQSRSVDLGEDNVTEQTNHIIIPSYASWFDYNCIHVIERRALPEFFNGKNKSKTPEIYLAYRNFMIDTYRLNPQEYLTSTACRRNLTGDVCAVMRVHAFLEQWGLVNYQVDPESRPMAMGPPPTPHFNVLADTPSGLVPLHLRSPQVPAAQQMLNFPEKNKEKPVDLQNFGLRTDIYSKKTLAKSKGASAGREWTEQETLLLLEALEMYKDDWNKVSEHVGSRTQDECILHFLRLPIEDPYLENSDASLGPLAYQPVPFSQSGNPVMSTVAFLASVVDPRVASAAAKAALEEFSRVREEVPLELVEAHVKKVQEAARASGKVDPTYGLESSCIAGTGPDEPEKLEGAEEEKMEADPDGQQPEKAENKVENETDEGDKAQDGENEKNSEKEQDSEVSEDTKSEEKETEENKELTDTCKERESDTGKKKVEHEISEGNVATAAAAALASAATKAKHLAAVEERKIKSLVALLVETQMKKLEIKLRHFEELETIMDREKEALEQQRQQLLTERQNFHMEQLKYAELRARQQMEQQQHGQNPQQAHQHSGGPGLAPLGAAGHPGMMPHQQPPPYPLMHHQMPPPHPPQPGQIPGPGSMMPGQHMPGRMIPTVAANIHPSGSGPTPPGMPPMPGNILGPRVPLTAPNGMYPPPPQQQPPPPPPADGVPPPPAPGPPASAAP

This experiment deals with SMARCB1 (human (endogenous in BJ fibroblasts)) (UniProt Q12824). Put plainly: co-IP; native immunoprecipitation of endogenous SMARCB1 from nuclear extracts of proliferating (-4OHT) and senescent (+4OHT) BJ fibroblasts; antibody overnight, Dynabeads Protein A or G; protein fraction of the beads analysed by western blot.

These are yes or no findings as the source states them, for the method shown. Binding seen in cells or lysates may run through a third protein. Some results given as binding are weak or reduced against the parent protein; the word gives no strength.

SMARCC1 (from UniProt Q92922 1-1105): the binding entry is on record as “binds”.
